Consider 2 molecules from paper doi:10.1101/2025.07.01.662580.

No constants are given. Whether binding was seen depends on the method and setting. Some results given as binding are weak or reduced against the parent protein; the word gives no strength. Sequences can lack the tags named with a protein.

The experiment addresses T1, Phosphoglucomutase-1 (PGM1), recombinant human (human) (UniProt P36871).
T1 sequence (chain, RED-tris-NTA dye bound to the His6 tag): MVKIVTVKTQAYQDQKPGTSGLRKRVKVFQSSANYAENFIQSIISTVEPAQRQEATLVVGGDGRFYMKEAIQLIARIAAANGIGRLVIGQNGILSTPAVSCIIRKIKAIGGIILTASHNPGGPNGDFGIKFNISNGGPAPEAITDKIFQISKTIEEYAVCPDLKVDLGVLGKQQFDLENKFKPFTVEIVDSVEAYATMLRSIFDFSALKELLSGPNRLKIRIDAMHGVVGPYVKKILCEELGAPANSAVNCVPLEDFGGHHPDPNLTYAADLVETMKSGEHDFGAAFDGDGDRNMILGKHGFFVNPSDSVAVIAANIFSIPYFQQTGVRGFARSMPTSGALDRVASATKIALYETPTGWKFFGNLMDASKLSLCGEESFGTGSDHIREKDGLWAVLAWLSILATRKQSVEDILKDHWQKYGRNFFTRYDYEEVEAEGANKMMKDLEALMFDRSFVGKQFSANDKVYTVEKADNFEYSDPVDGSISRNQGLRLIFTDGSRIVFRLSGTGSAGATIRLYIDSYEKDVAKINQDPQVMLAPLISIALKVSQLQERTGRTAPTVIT
Kind of experiment: MST.

Take SSQPRQYNNPIGLYSAEILREMAQMY [Zasp motif (ZM) peptide of ZASP/Cypher (LDB3) with the T106I mutation, 26-mer]: the binding entry is recorded as “binds”.

Take SSQPRQYNNPIGLYSAETLREMAQMY [peptide representing the conserved Zasp motif (ZM) of ZASP/Cypher (LDB3), 26-mer, wild type]: the binding entry is recorded as “binds”.
